In the supplement of paper PMC10849652:
The list shows a part of the results.

Amino acid sequences for entries named in this document (tags omitted). A change or cut given only in a name is not applied to a line headed by its entry.
UniProt Q9Y3A4: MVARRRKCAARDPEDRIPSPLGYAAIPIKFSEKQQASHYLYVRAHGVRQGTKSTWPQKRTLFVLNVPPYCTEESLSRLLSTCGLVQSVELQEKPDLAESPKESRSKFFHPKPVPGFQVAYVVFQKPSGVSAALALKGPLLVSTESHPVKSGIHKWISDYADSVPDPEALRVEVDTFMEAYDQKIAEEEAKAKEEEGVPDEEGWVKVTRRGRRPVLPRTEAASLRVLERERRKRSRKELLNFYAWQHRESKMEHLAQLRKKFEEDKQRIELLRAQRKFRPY
UniProt Q01196, whole entry, looked up: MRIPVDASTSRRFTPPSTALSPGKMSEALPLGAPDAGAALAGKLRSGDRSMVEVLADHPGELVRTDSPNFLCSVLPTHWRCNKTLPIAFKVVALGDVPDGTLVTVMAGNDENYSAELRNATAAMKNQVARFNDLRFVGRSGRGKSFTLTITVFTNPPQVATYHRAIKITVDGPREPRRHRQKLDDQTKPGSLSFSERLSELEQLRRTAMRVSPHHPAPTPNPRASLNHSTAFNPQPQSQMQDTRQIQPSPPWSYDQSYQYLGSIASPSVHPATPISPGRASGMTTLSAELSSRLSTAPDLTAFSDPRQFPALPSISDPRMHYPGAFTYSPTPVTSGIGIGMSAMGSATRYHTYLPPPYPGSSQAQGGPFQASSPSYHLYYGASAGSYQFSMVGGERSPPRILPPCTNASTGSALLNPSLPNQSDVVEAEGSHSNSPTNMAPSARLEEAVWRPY
UniProt Q15404: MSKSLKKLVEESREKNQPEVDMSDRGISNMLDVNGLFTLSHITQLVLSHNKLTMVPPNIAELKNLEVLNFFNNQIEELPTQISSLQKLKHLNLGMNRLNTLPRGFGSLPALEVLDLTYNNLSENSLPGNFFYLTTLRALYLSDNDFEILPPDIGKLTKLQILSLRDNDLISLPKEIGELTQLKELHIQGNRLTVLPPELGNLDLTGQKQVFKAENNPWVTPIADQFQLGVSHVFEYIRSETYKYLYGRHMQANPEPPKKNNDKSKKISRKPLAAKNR
UniProt Q9Y3I0: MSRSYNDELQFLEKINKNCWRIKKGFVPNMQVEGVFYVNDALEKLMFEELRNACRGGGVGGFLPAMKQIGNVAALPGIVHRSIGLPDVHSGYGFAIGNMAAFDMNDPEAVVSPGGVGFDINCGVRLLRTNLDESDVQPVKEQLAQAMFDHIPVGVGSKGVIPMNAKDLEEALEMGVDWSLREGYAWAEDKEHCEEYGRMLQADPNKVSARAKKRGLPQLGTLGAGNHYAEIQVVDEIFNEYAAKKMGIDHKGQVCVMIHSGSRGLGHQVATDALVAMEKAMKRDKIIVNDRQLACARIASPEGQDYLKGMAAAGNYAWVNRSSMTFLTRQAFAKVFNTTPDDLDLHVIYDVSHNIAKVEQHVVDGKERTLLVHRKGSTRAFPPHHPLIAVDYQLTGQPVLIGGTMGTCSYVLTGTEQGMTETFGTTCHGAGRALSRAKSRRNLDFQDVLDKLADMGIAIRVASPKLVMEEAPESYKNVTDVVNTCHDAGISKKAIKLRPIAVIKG
UniProt P78346: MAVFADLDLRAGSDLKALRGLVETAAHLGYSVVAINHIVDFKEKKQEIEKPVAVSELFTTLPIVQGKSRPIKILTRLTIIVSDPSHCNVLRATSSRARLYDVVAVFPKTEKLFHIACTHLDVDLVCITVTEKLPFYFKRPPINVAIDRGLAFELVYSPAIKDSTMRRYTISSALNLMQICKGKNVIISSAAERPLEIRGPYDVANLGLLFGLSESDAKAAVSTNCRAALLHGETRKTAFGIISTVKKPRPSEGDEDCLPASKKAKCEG
UniProt Q9HB90, whole entry, looked up: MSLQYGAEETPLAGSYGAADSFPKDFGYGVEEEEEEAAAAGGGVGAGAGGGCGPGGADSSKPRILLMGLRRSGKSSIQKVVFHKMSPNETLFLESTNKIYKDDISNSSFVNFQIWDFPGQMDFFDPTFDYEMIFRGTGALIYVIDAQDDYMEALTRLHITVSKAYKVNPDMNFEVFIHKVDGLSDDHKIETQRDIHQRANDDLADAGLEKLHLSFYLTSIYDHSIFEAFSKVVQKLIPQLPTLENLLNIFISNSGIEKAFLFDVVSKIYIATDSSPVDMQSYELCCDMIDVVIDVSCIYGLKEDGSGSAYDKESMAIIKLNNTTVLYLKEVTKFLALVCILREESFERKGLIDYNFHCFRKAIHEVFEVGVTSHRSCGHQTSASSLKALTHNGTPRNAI
UniProt P10301: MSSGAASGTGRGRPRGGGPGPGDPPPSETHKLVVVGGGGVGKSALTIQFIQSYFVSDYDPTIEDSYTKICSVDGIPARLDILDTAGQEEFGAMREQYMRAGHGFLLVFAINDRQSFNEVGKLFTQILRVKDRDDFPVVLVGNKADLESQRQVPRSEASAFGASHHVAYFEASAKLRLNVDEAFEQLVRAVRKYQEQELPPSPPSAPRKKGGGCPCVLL
UniProt P04843: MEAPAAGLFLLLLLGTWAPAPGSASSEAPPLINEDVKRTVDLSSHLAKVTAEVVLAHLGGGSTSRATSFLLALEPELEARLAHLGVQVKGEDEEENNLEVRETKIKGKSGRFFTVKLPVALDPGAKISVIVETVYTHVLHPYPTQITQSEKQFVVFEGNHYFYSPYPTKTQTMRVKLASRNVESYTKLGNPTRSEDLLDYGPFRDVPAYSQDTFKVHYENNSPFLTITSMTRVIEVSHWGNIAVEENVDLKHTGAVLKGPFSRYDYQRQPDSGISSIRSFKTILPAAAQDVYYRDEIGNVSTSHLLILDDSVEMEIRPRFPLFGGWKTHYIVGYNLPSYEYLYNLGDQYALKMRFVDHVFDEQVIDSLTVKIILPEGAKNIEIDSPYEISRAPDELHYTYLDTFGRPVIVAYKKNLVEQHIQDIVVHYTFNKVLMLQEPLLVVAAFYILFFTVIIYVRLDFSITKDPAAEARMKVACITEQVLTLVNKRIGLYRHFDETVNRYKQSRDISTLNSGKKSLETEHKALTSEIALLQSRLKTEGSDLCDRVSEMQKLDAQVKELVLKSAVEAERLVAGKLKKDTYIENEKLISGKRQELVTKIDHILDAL
UniProt Q7L4I2: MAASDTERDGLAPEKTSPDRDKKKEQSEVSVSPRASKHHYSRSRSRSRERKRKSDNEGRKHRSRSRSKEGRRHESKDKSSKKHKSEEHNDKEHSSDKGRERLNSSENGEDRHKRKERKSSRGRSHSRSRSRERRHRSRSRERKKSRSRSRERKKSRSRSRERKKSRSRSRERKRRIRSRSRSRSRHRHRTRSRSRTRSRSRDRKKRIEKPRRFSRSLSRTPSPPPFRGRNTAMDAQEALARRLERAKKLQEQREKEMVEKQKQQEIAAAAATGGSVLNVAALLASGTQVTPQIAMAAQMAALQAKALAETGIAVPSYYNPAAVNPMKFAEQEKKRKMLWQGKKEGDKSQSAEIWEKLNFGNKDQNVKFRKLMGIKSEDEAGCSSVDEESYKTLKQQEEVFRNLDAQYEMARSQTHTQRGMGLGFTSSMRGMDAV
UniProt Q15050: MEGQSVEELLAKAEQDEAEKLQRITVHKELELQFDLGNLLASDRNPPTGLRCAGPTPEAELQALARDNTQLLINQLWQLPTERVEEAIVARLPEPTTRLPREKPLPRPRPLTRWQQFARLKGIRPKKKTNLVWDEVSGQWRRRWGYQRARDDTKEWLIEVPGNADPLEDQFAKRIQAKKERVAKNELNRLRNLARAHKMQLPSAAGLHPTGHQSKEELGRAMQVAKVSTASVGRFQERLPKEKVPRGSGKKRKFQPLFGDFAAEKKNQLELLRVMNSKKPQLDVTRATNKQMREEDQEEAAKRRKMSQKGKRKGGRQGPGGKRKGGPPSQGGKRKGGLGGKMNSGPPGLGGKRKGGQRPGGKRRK
UniProt O75818: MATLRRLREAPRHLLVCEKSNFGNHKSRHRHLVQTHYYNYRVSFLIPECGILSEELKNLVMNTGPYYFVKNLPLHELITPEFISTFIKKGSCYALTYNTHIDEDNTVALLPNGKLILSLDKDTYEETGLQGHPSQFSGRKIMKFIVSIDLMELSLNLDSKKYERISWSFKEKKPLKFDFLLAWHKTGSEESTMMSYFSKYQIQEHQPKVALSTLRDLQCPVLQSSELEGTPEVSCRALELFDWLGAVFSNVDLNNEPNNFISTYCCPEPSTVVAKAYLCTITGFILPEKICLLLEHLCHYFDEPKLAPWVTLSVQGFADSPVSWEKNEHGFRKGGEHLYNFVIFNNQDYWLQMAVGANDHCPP
UniProt Q96T23: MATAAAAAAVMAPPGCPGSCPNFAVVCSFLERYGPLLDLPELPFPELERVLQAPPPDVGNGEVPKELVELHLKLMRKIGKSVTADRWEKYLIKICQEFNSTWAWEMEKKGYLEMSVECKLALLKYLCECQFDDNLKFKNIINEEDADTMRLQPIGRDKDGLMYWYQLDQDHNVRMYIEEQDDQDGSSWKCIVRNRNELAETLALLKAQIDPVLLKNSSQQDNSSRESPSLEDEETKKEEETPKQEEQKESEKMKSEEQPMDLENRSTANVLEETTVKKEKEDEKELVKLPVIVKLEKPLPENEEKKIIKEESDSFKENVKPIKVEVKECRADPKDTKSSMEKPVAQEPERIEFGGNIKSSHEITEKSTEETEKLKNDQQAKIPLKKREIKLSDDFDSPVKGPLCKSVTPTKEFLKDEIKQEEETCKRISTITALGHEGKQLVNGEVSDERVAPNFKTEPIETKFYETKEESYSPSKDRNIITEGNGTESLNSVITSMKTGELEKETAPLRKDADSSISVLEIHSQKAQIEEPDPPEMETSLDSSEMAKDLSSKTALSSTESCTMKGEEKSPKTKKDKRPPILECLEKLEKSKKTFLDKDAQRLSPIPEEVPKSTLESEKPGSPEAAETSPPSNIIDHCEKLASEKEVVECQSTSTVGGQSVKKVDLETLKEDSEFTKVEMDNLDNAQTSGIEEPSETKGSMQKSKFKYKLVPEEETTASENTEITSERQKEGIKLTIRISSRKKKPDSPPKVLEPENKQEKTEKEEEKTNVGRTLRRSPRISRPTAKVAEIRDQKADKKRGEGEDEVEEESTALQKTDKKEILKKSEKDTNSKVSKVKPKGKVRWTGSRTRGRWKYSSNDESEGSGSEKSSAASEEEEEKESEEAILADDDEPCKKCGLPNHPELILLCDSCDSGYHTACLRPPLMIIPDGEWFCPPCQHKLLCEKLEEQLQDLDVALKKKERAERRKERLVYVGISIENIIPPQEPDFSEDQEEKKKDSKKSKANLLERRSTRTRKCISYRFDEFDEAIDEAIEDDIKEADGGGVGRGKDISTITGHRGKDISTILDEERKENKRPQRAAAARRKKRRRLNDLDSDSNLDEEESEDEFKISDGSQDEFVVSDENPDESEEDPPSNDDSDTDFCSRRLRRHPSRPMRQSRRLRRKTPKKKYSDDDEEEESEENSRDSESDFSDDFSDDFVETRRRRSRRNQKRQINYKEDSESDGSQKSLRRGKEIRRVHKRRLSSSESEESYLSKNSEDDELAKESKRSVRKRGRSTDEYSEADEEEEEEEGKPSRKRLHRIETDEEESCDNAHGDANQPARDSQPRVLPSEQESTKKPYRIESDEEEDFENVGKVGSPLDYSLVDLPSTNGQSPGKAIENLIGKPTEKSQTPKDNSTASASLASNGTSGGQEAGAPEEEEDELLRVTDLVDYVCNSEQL
UniProt P31949: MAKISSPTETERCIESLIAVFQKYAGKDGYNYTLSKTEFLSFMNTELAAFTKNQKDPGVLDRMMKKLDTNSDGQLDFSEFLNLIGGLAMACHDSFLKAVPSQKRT
UniProt P51812, whole entry, looked up: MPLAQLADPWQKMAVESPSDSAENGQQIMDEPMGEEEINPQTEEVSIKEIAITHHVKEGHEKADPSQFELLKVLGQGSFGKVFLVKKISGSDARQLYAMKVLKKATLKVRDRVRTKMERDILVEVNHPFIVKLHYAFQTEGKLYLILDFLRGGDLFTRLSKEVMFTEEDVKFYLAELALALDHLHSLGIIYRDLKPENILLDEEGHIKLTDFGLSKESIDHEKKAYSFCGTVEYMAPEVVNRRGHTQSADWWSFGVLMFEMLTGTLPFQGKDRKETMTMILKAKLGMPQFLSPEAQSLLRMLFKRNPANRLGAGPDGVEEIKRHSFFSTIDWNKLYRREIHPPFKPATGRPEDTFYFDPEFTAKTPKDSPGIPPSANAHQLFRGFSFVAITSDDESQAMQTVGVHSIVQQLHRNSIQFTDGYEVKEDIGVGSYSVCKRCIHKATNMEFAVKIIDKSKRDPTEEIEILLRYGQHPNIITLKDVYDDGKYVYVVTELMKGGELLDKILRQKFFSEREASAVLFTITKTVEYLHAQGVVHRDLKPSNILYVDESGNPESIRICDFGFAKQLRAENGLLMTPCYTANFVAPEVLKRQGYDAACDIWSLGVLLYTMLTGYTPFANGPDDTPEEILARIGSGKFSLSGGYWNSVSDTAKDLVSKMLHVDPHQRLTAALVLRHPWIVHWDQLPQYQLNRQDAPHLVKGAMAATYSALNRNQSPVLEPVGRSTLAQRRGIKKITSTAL
UniProt Q99584: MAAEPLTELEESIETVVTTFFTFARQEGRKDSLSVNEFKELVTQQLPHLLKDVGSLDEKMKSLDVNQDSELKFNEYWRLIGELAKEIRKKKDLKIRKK

How the values were obtained:
Assay in all cases: log2 fold change, soluble protein after heating vs DMSO (PISA); higher = thermal stabilisation; K562 lysate, 10 uM; active = over 0.2 and 3.5 SD of the protein, either way, in both replicates (recomputed)
[1] = compound: C1=CC=C(C=C1)[C@H](COC2=CC3=C(C=C2)NC(=O)N3)NC(=O)C4=CC=CN(C4=O)CC5=CC(=C(C=C5)F)F
Outline: (§1)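 K562 pellets were dounce-homogenised in PBS pH 7.4 with 1 mM MgCl2, and the crude extract at 1 mg/mL protein was treated with 10 μM compound for 30 min. Aliquots were heated for 3 min across 48°C-58°C, pooled, and brought to 0.5% NP-40 at 4°C; soluble protein was the supernatant after 21,000xg for 90 min. Soluble protein was quantified by TMTpro 16plex LC-MS/MS with channel sums equalised, and reported as log2 fold change in thermal stability against DMSO controls, with values from duplicates.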

[2] = compound: CC1=C(SC2=C1C(=N[C@H](C3=NN=C(N32)C)CC(=O)N)C4=CC=C(C=C4)Cl)C
Outline: as §1

[3] = compound: CC1=C2C(=CC=C1)N=C(N(C2=O)C3=CC=CC=C3C)CN4C=NC5=C(N=CN=C54)N
Outline: as §1

[4] = compound: Cc1sc2c(c1C)C(c1ccc(Cl)cc1)=N[C@@H](CC(=O)OC(C)(C)C)c1nnc(C)n1-2
Outline: as §1

[5] = compound: c1ccc([C@@H]2C[C@H]2NC2CCNCC2)cc1
Outline: as §1

Measured: log2 fold change

RPL38 (UniProt P63173)
inactive: [1] 0 | [2] 0.024 | [3] 0.01 | [4] 0.012 | [5] 0.008

RPS6KC1 (UniProt Q96S38)
inactive: [1] -0.009 | [2] -0.004 | [3] 0.056 | [4] 0.033 | [5] -0.02

RPLP1 (UniProt P05386)
inactive: [1] 0.024 | [2] -0.01 | [3] -0.039 | [4] -0.008 | [5] -0.007

RRP7A (UniProt Q9Y3A4)
inactive: [1] 0.072 | [2] -0.032 | [3] 0.01 | [4] 0.143 | [5] -0.012

RPS4X (UniProt P62701)
inactive: [1] 0.02 | [2] 0.029 | [3] -0.009 | [4] 0.044 | [5] 0.066

RPS26P11 (UniProt Q5JNZ5)
inactive: [1] -0.001 | [2] 0.031 | [3] 0.05 | [4] -0.033
active: [5] -0.31

RUNX1 isoform 8 (UniProt Q01196)
inactive: [1] -0.235 | [2] -0.032 | [3] 0.024 | [4] -0.021 | [5] -0.027

RSU1 (UniProt Q15404)
inactive: [1] 0.056 | [2] 0.004 | [3] -0.004 | [4] -0.017 | [5] 0.157

RTCB (UniProt Q9Y3I0)
inactive: [1] 0.009 | [2] 0.036 | [3] 0.014 | [4] 0.025 | [5] 0.034

RPP30 isoform 2 (UniProt P78346)
inactive: [1] 0.06 | [2] -0.034 | [3] -0.022 | [4] 0.008 | [5] -0.034

RPL7A (UniProt P62424)
inactive: [1] 0.013 | [2] 0.017 | [3] 0.015 | [4] 0.013 | [5] 0.013

RRAGC (UniProt Q9HB90)
inactive: [1] -0.001 | [2] 0.032 | [3] 0.004 | [4] -0.001 | [5] 0.026

RRAS (UniProt P10301)
inactive: [1] -0.044 | [2] 0.037 | [3] 0.026 | [4] -0.028 | [5] 0.009

RPS11 (UniProt P62280)
inactive: [1] -0.006 | [2] 0.022 | [3] -0.005 | [4] -0.006 | [5] 0.029

RTN4 (UniProt Q9NQC3)
inactive: [1] -0.026 | [2] 0.003 | [3] -0.005 | [4] -0.03 | [5] -0.057

RPN1 (UniProt P04843)
inactive: [1] -0.025 | [2] 0.016 | [3] 0.028 | [4] -0.021 | [5] 0

RSRC2 (UniProt Q7L4I2)
inactive: [1] 0.08 | [2] -0.048 | [3] 0.029 | [4] -0.008 | [5] -0.024

Looked up one by one from the list above, 2 records:
RSRC2 (UniProt Q7L4I2)
inactive: [1] 0.08 | [2] -0.048 | [3] 0.029 | [4] -0.008 | [5] -0.024

RRAS (UniProt P10301)
inactive: [1] -0.044 | [2] 0.037 | [3] 0.026 | [4] -0.028 | [5] 0.009

Carrying on.

RRS1 (UniProt Q15050)
inactive: [1] 0.036 | [2] -0.007 | [3] -0.007 | [4] 0.009 | [5] 0.023

RPP40 (UniProt O75818)
inactive: [1] -0.017 | [2] -0.021 | [3] -0.011 | [4] 0.056 | [5] 0.038

RSF1 (UniProt Q96T23)
inactive: [1] -0.03 | [2] 0.008 | [3] 0.173 | [4] -0.071 | [5] 0

RUBCN (UniProt Q92622)
inactive: [1] -0.035 | [2] -0.026 | [3] -0.072 | [4] 0.03 | [5] 0.051

S100A11 (UniProt P31949)
inactive: [1] 0.029 | [2] -0.075 | [3] -0.002 | [4] -0.029 | [5] -0.005

RPS6KA3 (UniProt P51812)
inactive: [1] -0.049 | [2] -0.031 | [3] -0.008 | [4] 0.009 | [5] -0.061

S100A13 (UniProt Q99584)
inactive: [1] 0.05 | [2] 0.003 | [3] 0.002 | [4] -0.019 | [5] 0.002
